Experimental data taken from PubChem BioAssay AID1347426 (Functional Genomics Laboratory (NCATS/FGL), 2020).
In all, about 31,000 sequences went through this assay and about 1,400 (4.5%) were called active.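 Rule for the calls: active = median seed-adjusted z-score above 1 or below -1; inactive = the rest.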 This is one part of the list.

Experiment: Novel Modifiers of Survival Motor Neuron (SMN) Protein: Gene Identification via Genome-wide siRNA Screen;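 note: luminescence tracks full-length SMN protein made from the SMN2 reporter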
Settings: HEK293T SMN2-luciferase reporter, siRNA knockdown, 72 h; actives lie on both sides
Summary of the method: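 siRNA screen, 10418 genes ×3 siRNAs; 1 pmol/well, lipid reverse transfection into HEK293T SMN2-luc reporter line. 72 h, 37 °C, 5% CO2; ONE-Glo readout. Data: neg-ctrl normalized, log10, MAD; hit = MAD >1.0 or < -1.0.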

Sequence | median seed-adjusted z-score
CGAGCAUUAAUUAAUGAUATT against GPR137C | inactive: -0.405
GCUAAUGACAAAUCGCUCATT against MSH4 | inactive: 0
CCACCUGUACAGCACGGUATT against TGFB1I1 | inactive: 0.887
CGGGAUAAUUUUGACAAGATT against NXF2 | inactive: -0.0513
GAAAUUGAAAUGCACUCUATT against KDSR | inactive: -0.108
CCACAGACCUUGUGACCGATT against ZNF746 | inactive: 0.1
GCUCACGAUUUGUUACACUTT against C5AR1 | inactive: 0.366
ACAUGGUCCAAUCCUCCUATT against FBP2 | inactive: 0
GGACUAAUGUUACACCAAUTT against KLHL12 | inactive: -0.0991
GGACUUGAAUUGACUAGUUTT against SSH2 | inactive: 0.357
GGUGGUGAGUUGUUCAGCATT against MAPKAPK3 | inactive: -0.506
GGAGCAUUGAUAUACGUCATT against RRAGC | inactive: -0.557
GUAUGGAUCUGAACUAGAUTT against TPH1 | inactive: -0.055
GGACUUCUAUGAAGGGCAATT against UPP1 | inactive: -0.135
GCCUGUCUGCUCUACGAAATT against APOBEC1 | inactive: -0.323
GGACUACGCUGCAAUUAGATT against RALA | inactive: 0.553
AGACGGCCGUCAUGACGAATT against MATK | inactive: -0.754
GGAAGAUACCUGGAGGUUUTT against LILRB3 | inactive: 0.0304
GGUGUAUUGGAGUCACAAATT against PTGFR | inactive: 0
GAGAAAGUGUGAACUUACATT against XRCC2 | inactive: 0
CCAUGGGAGCUAUUGAUUUTT against GPLD1 | inactive: 0.0152
AAGCGAAACUGUCAGAGGATT against RAX | inactive: -0.176

Sequence | median seed-adjusted z-score
GACCAAAGAUGGAUUAAUATT against SLC25A13 | inactive: 0.00924
GCUUGAUAGAGUUAUGAUATT against TIGD2 | inactive: -0.13
CCCGUGAGGUUGUCAAUAATT against NDUFS7 | inactive: -0.386
CAGGAACCGUGUGGAUACATT against NDUFB8 | inactive: -0.468
GGUGAGCACCGGCAACUAUTT against PICK1 | inactive: -0.136
CAUCAACUAUGGGAUAAUATT against SLC17A2 | inactive: 0.141
GACUACCUGAGAUCACUAATT against RAD52 | inactive: -0.737
GAUGAAAACCCUACAGUUUTT against GPR55 | inactive: -0.114
GGUUUGAAAUUCUAACAAATT against TXNDC6 | inactive: 0.156
GUGACCAUAUCGUCGAUUATT against PCDHB14 | inactive: -0.229
GAUUACAACCUGUAUCGAATT against THOC1 | active: -3.04
GUACAGGGAGCAGAUCAAATT against HRAS | inactive: -0.85
CGACCUACCCGAUAGAUGATT against TSTA3 | inactive: 0.155
CAGACAAAUUUUAACCACATT against SLC17A8 | inactive: -0.332
GGUGGGUGGUGAGAUCAAUTT against KRT17 | inactive: -0.0871
CUGUUAUUCUUGCUCGUGUTT against LEPROT | inactive: -0.17
CACCUACUGUAGAGGUGAATT against GPRC6A | inactive: 0
CCACAUUUGUGACGCAAAATT against TPSAB1 | inactive: 0.197
GGAGUGUCAAGAUAUCAAUTT against LTBP2 | inactive: 0.0496
CAAAAACAGUGGAUAAUUUTT against PPIB | inactive: 0.038
GCAGCAUUUUUGUGGACGATT against ADAMTS18 | inactive: 0.824
GCAUUGUAGUUAUUAUUUUTT against OLIG2 | inactive: 0.00944

Sequence | median seed-adjusted z-score
GCAUCAAGUUUAUAAGACATT against TXNRD1 | inactive: 0.485
AUAUGGGACAGAAACCAUATT against ZNF222 | inactive: 0.13
GUCCCGGAAUUACAGAGUATT against LIAS | inactive: -0.31
CAGCUACCCUUCCAUCAUATT against BRCA1 | inactive: -0.0302
CAAGCAUCUUUGUCAAAGATT against PTH2R | inactive: -0.492
GAAUCCCGUUGUUCGGAUATT against FAP | inactive: -0.258
GGCUAUUACUCAGUACAGATT against TLN1 | inactive: -0.0619
GAUAUGAAUCAAUUCCGAATT against CROT | inactive: -0.612
GCAAUACUCUUAACCAUAATT against FOXA1 | inactive: 0.279
AGAUAAAGCGAUCUAAACUTT against ASCC3 | inactive: -0.192
GGAGGAUAGCAGCAGAAGATT against ATP5I | inactive: -0.871
GCAAUUCGAUUAGCAGCUATT against PCDHGC4 | inactive: 0.301
GAAGGUCCUAGUUAUCCAATT against CYB5R4 | inactive: 0
ACUGAGAUCUUGUUCCACUTT against NOL6 | inactive: -0.751
GAUUUAAGCAGAGUUCAAATT against BCR | inactive: 0.143
GUAUCAUAGCAACGAUUUATT against SLC7A9 | inactive: 0.194
GGAGAAUGCCGAAGAGGAATT against POLR2F | active: -3.52
GAAUCUGAACGAACGAUAUTT against ULK2 | inactive: -0.0393
AACCAAGGGUGGUAAUGUUTT against ABCF1 | inactive: -0.221
GAUCCUCAGUAAACCUAUUTT against DDX46 | active: -1.24
GCCCUAUACAUAUUGGGUUTT against CYP2E1 | inactive: 0.81
GAAACAUAGUUCAACUGAATT against ELK1 | inactive: -0.52

An excerpt taken from the entries so far, for reference:
Sequence | median seed-adjusted z-score
AUAUGGGACAGAAACCAUATT against ZNF222 | inactive: 0.13
GUCCCGGAAUUACAGAGUATT against LIAS | inactive: -0.31
CAGCUACCCUUCCAUCAUATT against BRCA1 | inactive: -0.0302
CAAGCAUCUUUGUCAAAGATT against PTH2R | inactive: -0.492
GAAUCCCGUUGUUCGGAUATT against FAP | inactive: -0.258
GGCUAUUACUCAGUACAGATT against TLN1 | inactive: -0.0619

Carrying on.

Sequence | median seed-adjusted z-score
CUAUGAUGCUGCCCAAAGATT against SAA4 | inactive: 0.104
GCAUCAUCGUGCUCUGCUATT against OPN1MW | inactive: -0.369
CCAUACUUGAAAACUAUUUTT against DOT1L | inactive: 0.164
GCCCAUCGUGCUUAAAGAATT against RASA3 | inactive: 0.0056
GAACUUUGUUACUAUCGAATT against PCDH9 | inactive: 0.165
GGACUUACGGCUGUACGAATT against FSD2 | inactive: 0.359
GCAACCACGCCUCACCAAATT against TFDP3 | inactive: -0.135
CUGUUUAAGCGAUGACAAATT against CFL2 | inactive: -0.148
GGCGAAGGCAUCUCAGUUATT against PDCL | inactive: -0.802
UGAUCAGCCUCGACCGGUATT against HRH2 | inactive: -0.257
GUCCAACACUGAUAAGAUUTT against LCORL | inactive: -0.0458
AGAGCUAUGCUUUAGGUCUTT against S100A2 | inactive: -0.0951
CCCACACCUCUUUAAGUAUTT against DNTTIP1 | inactive: -0.33
CAUGCGCAAAAUCACCAAATT against ARL8A | inactive: -0.0844
UGAAGAAUAUUUUCCAUGATT against SLC26A6 | inactive: 0.316
GGACAUAGCUUGGUGAACUTT against HEL308 | inactive: 0.229
AGAUCAACGCAGGCAUGUATT against GMPPB | inactive: 0.154
UCAUAAACUUGGAUAAGCATT against NRIP3 | inactive: -0.699
CCUUAAUUUUCGCAGAUAATT against PANK4 | inactive: 0.00068
CGCUGAUCGUUAUACCCGUTT against RAMP3 | inactive: 0
CAGCAGACGUAAAAAUUCATT against MSX2 | inactive: -0.406
ACAUCAUUACGGACAAAAATT against CNGB1 | inactive: -0.627

3 records drawn at random from those above:
Sequence | median seed-adjusted z-score
ACUGAGAUCUUGUUCCACUTT against NOL6 | inactive: -0.751
GUAUCAUAGCAACGAUUUATT against SLC7A9 | inactive: 0.194
GCAUUGUAGUUAUUAUUUUTT against OLIG2 | inactive: 0.00944

The list continues.

Sequence | median seed-adjusted z-score
GACUAUCUUUUUAGGCAAATT against BRIP1 | inactive: 0.312
GAGCCCAGCUGAAACGAGATT against NDUFB4 | inactive: -0.697
AGUUCUUCGAGAACCGCAATT against WIZ | inactive: 0.282
CAGUGGAACCCAAGAAUAATT against SALL2 | inactive: 0.504
ACACUGUUGCAAGGACUAATT against NCR2 | inactive: -0.0526
CCGACAAGAUGUGAAGUCATT against ADD2 | inactive: -0.176
GGACAGGAACCAGAACCCATT against ZFPM1 | inactive: -0.925
CGUGAAGAGAUGUUACAAATT against POLB | inactive: 0.376
ACUGCUUUAUCCAAAUUCATT against CSF2RA | inactive: -0.227
GAAUCCUCCCAAUUGAUCATT against LSG1 | active: 1.31
CUACAUUCUUAAUGCCGAUTT against EIF3L | inactive: 0.656
CUUAAUCACUUGCAUAAAATT against GALR1 | inactive: -0.721
GGUCUGCACUCAUCACUAUTT against MGAT4A | inactive: 0.134
CUAGAUACGUGUUCAGGAATT against CNTN4 | inactive: -0.407
CCCGGAAGUUUGUAGCUGATT against SLC25A44 | inactive: -0.0685
GCUCUGCUAUAUCCUGGAUTT against FCER1G | inactive: 0.136
CCAGUACAUUUACCGAGUATT against ADH7 | inactive: -0.388
GCUACGUCCUGCACCGUAATT against MASP2 | inactive: -0.137
CCCUGCCUUUUUCAACUUUTT against CYP2F1 | inactive: 0
